{"sequences": {"note": "Amino acid sequences for entries named in this document (tags omitted).", "UniProt P36873": "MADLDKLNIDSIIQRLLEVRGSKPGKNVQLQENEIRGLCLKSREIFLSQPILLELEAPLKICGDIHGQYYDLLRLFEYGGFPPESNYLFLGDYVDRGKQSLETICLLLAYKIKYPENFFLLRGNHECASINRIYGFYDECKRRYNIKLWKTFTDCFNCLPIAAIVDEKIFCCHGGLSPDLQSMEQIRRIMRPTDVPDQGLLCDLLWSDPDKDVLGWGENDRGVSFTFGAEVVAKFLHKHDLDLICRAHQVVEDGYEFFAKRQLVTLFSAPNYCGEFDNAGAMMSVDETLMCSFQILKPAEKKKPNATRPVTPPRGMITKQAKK"}, "source": "paper PMC12204625", "molecular_target": "T1, IFN alpha inducible protein 27 (IFI27) fused to a C-terminal HA tag (human) (UniProt P40305)", "T1 sequence": "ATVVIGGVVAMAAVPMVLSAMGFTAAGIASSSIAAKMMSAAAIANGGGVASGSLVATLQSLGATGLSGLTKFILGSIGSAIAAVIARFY", "test": "affinity purification with mass spectrometry; HEK-293T transfected with pCAGGS-IFI27-HA (or pCAGGS-IFI44-HA, or empty plasmid), then poly(I:C) 3000 ng/ml; lysis in NaCl 250 mM, EDTA 1 mM, 50 mM TrisHCl pH 7.5, NP-40 0.5%; anti-HA affinity resin overnight at 4 °C; washes in TBS with 0.1% SDS; elution 0.1 M glycine pH 2.4; LC-MS/MS", "note": "Results are given in words; binding and its absence hold for the method and conditions named. In cells and extracts the contact can be indirect. These calls come from enrichment with a bait or labelling near it, and not all partners need be listed. Where a sequence is shown, tags or fusion partners need not be part of it.", "data": [{"molecule": "protein phosphatase 1C (PPP1CC), gamma isoform of the phosphatase catalytic subunit, endogenous (from UniProt P36873 1-323) (enzyme)", "values": [{"measurement": "binding", "result": "binds"}]}, {"molecule": "TARBP2 Subunit of RISC Loading Complex (TARBP2), endogenous (protein, UniProt Q15633 1-366) MSEEEQGSGTTTGCGLPSIEQMLAANPGKTPISLLQEYGTRIGKTPVYDLLKAEGQAHQPNFTFRVTVGDTSCTGQGPSKKAAKHKAAEVALKHLKGGSMLEPALEDSSSFSPLDSSLPEDIPVFTAAAAATPVPSVVLTRSPPMELQPPVSPQQSECNPVGALQELVVQKGWRLPEYTVTQESGPAHRKEFTMTCRVERFIEIGSGTSKKLAKRNAAAKMLLRVHTVPLDARDGNEVEPDDDHFSIGVGSRLDGLRNRGPGCTWDSLRNSVGEKILSLRSCSLGSLGALGPACCRVLSELSEEQAFHVSYLDIEELSLSGLCQCLVELSTQPATVCHGSATTREAARGEAARRALQYLKIMAGSK", "values": [{"measurement": "binding", "result": "binds"}]}]}
